# Source: the supplement of paper PMC8728848
# This is one part of the list.
# B1: OS9-MRH (Homo sapiens), Q13438 (protein)
# chain: IPELLSPMRDAPCLLKTKDWWTYEFCYGRHIQQYHMEDSEIKGEVLYLGYYQSAFDWDDETAKASKQHRLKRYHSQTYGNGSKCDLNGRPREAEVRFLCDEGAGISGDYIDRVDEPLSCSYVLTIRTPRLCPHPLLRPPPSAAPQAI
# What was measured:
# Experiment in all cases: glycan array binding signal (z-score within array); higher = stronger binding
# Conditions in all cases: glycan notation: IUPAC condensed, linker removed
# [1] = biological target: Gal(a1-6)Glc
# Procedure, shortened: (§1)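 Arrays were curated from the Consortium for Functional Glycomics database, 3228 in total, and kept only where the protein sequence was available. Binding is expressed as a within-array Z-score. This score was averaged across arrays of the same protein sequence at different concentrations or buffers and across linkers, and negative values can be read as non-binding.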
# [2] = biological target: Gal(b1-2)Gal
# Procedure, shortened: as §1
# [3] = biological target: Gal(b1-3)Gal
# Procedure, shortened: as §1
# [4] = biological target: Gal(b1-3)Gal(b1-4)GlcNAc
# Procedure, shortened: as §1
# [5] = biological target: Gal(b1-3)GalNAc
# Procedure, shortened: as §1
# [6] = biological target: Gal(b1-3)GalNAc(a1-3)[Fuc(a1-2)]Gal(b1-4)Glc
# Procedure, shortened: as §1
# [7] = biological target: Gal(b1-3)GalNAc(a1-3)[Fuc(a1-2)]Gal(b1-4)GlcNAc
# Procedure, shortened: as §1
# [8] = biological target: Gal(b1-3)GalNAc(b1-3)Gal
# Procedure, shortened: as §1
# [9] = biological target: Gal(b1-3)GalNAc(b1-3)Gal(a1-4)Gal(b1-4)Glc
# Procedure, shortened: as §1
# [10] = biological target: Gal(b1-3)GalNAc(b1-4)Gal(b1-4)Glc
# Procedure, shortened: as §1
# [11] = biological target: Gal(b1-3)GalNAc(b1-4)[Neu5Ac(a2-3)]Gal(b1-4)Glc
# Procedure, shortened: as §1
# [12] = biological target: Gal(b1-3)GlcNAc
# Procedure, shortened: as §1
# [13] = biological target: Gal(b1-3)GlcNAc(a1-3)Gal(b1-4)GlcNAc
# Procedure, shortened: as §1
# [14] = biological target: Gal(b1-3)GlcNAc(a1-6)Gal(b1-4)GlcNAc
# Procedure, shortened: as §1
# [15] = biological target: Gal(b1-3)GlcNAc(b1-2)Man
# Procedure, shortened: as §1
# [16] = biological target: Gal(b1-3)GlcNAc(b1-2)Man(a1-3)[Gal(b1-3)GlcNAc(b1-2)Man(a1-6)]Man(b1-4)GlcNAc(b1-4)GlcNAc
# Procedure, shortened: as §1
# [17] = biological target: Gal(b1-3)GlcNAc(b1-2)Man(a1-3)[Gal(b1-3)GlcNAc(b1-2)Man(a1-6)]Man(b1-4)GlcNAc(b1-4)[Fuc(a1-6)]GlcNAc
# Procedure, shortened: as §1
# [18] = biological target: Gal(b1-3)GlcNAc(b1-2)Man(a1-3)[GlcNAc(b1-4)][Gal(b1-3)GlcNAc(b1-2)Man(a1-6)]Man(b1-4)GlcNAc(b1-4)GlcNAc
# Procedure, shortened: as §1
# [19] = biological target: Gal(b1-3)GlcNAc(b1-2)[Gal(b1-3)GlcNAc(b1-6)]Man(a1-6)[Gal(b1-3)GlcNAc(b1-2)Man(a1-3)]Man(b1-4)GlcNAc(b1-4)GlcNAc
# Procedure, shortened: as §1
# [20] = biological target: Gal(b1-3)GlcNAc(b1-3)Gal(b1-3)GlcNAc
# Procedure, shortened: as §1
# [21] = biological target: Gal(b1-3)GlcNAc(b1-3)Gal(b1-4)Glc
# Procedure, shortened: as §1
# [22] = biological target: Gal(b1-3)GlcNAc(b1-3)Gal(b1-4)GlcNAc
# Procedure, shortened: as §1
# [23] = biological target: Gal(b1-3)GlcNAc(b1-3)Gal(b1-4)GlcNAc(b1-2)Man(a1-3)[Gal(b1-3)GlcNAc(b1-3)Gal(b1-4)GlcNAc(b1-2)Man(a1-6)]Man(b1-4)GlcNAc(b1-4)GlcNAc
# Procedure, shortened: as §1
# [24] = biological target: Gal(b1-3)GlcNAc(b1-3)Gal(b1-4)GlcNAc(b1-2)[Gal(b1-3)GlcNAc(b1-3)Gal(b1-4)GlcNAc(b1-6)]Man(a1-6)[Gal(b1-3)GlcNAc(b1-3)Gal(b1-4)GlcNAc(b1-2)Man(a1-3)]Man(b1-4)GlcNAc(b1-4)[Fuc(a1-6)]GlcNAc
# Procedure, shortened: as §1
# [25] = biological target: Gal(b1-3)GlcNAc(b1-3)Gal(b1-4)GlcNAc(b1-3)Gal(b1-4)GlcNAc(b1-2)[Gal(b1-3)GlcNAc(b1-3)Gal(b1-4)GlcNAc(b1-3)Gal(b1-4)GlcNAc(b1-6)]Man(a1-6)[Gal(b1-3)GlcNAc(b1-3)Gal(b1-4)GlcNAc(b1-3)Gal(b1-4)GlcNAc(b1-2)Man(a1-3)]Man(b1-4)GlcNAc(b1-4)[Fuc(a1-6)]GlcNAc
# Procedure, shortened: as §1
# [26] = biological target: Gal(b1-3)GlcNAc(b1-3)Gal(b1-4)GlcNAc(b1-6)[Gal(b1-3)GlcNAc(b1-3)]Gal(b1-4)Glc
# Procedure, shortened: as §1
# [27] = biological target: Gal(b1-3)GlcNAc(b1-3)Gal(b1-4)[Fuc(a1-3)]GlcNAc
# Procedure, shortened: as §1
# [28] = biological target: Gal(b1-3)GlcNAc(b1-3)Gal(b1-4)[Fuc(a1-3)]GlcNAc(b1-6)[Gal(b1-3)GlcNAc(b1-3)]Gal(b1-4)Glc
# Procedure, shortened: as §1
# [29] = biological target: Gal(b1-3)GlcNAc(b1-3)GalNAc
# Procedure, shortened: as §1
# [30] = biological target: Gal(b1-3)GlcNAc(b1-6)Gal(b1-4)GlcNAc
# Procedure, shortened: as §1
# [31] = biological target: Gal(b1-3)GlcNAc(b1-6)GalNAc
# Procedure, shortened: as §1
# [32] = biological target: Gal(b1-3)GlcNAc(b1-6)[Gal(b1-3)]GalNAc
# Procedure, shortened: as §1
# [33] = biological target: Gal(b1-3)GlcNAc6S
# Procedure, shortened: as §1
# [34] = biological target: Gal(b1-3)[Fuc(a1-4)]GlcNAc
# Procedure, shortened: as §1
# [35] = biological target: Gal(b1-3)[Fuc(a1-4)]GlcNAc(b1-2)Man
# Procedure, shortened: as §1
# [36] = biological target: Gal(b1-3)[Fuc(a1-4)]GlcNAc(b1-2)Man(a1-3)[Gal(b1-3)[Fuc(a1-4)]GlcNAc(b1-2)Man(a1-6)]Man(b1-4)GlcNAc(b1-4)[Fuc(a1-6)]GlcNAc
# Procedure, shortened: as §1
# [37] = biological target: Gal(b1-3)[Fuc(a1-4)]GlcNAc(b1-3)Gal(b1-3)[Fuc(a1-4)]GlcNAc
# Procedure, shortened: as §1
# [38] = biological target: Gal(b1-3)[Fuc(a1-4)]GlcNAc(b1-3)Gal(b1-4)[Fuc(a1-3)]GlcNAc
# Procedure, shortened: as §1
# [39] = biological target: Gal(b1-3)[Fuc(a1-4)]GlcNAc(b1-6)GalNAc
# Procedure, shortened: as §1
# [40] = biological target: Gal(b1-3)[GlcNAc(b1-6)]GalNAc
# Procedure, shortened: as §1
# [41] = biological target: Gal(b1-3)[Neu5Ac(a2-6)]GalNAc
# Procedure, shortened: as §1
# [42] = biological target: Gal(b1-3)[Neu5Ac(a2-6)]GlcNAc(b1-4)Gal(b1-4)Glc
# Procedure, shortened: as §1
# [43] = biological target: Gal(b1-3)[Neu5Ac(b2-6)]GalNAc
# Procedure, shortened: as §1
# [44] = biological target: Gal(b1-4)Gal
# Procedure, shortened: as §1
# [45] = biological target: Gal(b1-4)GalNAc(a1-3)[Fuc(a1-2)]Gal(b1-4)GlcNAc
# Procedure, shortened: as §1
binder,measurement,setting,value
B1,glycan array binding signal (z-score),[1],0.346
same,glycan array binding signal (z-score),[2],1.81
same,glycan array binding signal (z-score),[3],2.14
same,glycan array binding signal (z-score),[4],-2.16
same,glycan array binding signal (z-score),[5],-0.099
same,glycan array binding signal (z-score),[6],-1.52
same,glycan array binding signal (z-score),[7],0.755
same,glycan array binding signal (z-score),[8],-0.52
same,glycan array binding signal (z-score),[9],2.47
same,glycan array binding signal (z-score),[10],-0.713
same,glycan array binding signal (z-score),[11],-0.354
same,glycan array binding signal (z-score),[12],0.27
same,glycan array binding signal (z-score),[13],0.733
same,glycan array binding signal (z-score),[14],-0.372
same,glycan array binding signal (z-score),[15],1.85
same,glycan array binding signal (z-score),[16],-0.023
same,glycan array binding signal (z-score),[17],-0.669
same,glycan array binding signal (z-score),[18],2.02
same,glycan array binding signal (z-score),[19],0.934
same,glycan array binding signal (z-score),[20],0.038
same,glycan array binding signal (z-score),[21],-0.054
same,glycan array binding signal (z-score),[22],-0.137
same,glycan array binding signal (z-score),[23],2.4
same,glycan array binding signal (z-score),[24],0.95
same,glycan array binding signal (z-score),[25],-0.298
same,glycan array binding signal (z-score),[26],-0.826
same,glycan array binding signal (z-score),[27],0.956
same,glycan array binding signal (z-score),[28],0.099
same,glycan array binding signal (z-score),[29],-0.581
same,glycan array binding signal (z-score),[30],-1.35
same,glycan array binding signal (z-score),[31],-0.373
same,glycan array binding signal (z-score),[32],0.367
same,glycan array binding signal (z-score),[33],-0.326
same,glycan array binding signal (z-score),[34],0.288
same,glycan array binding signal (z-score),[35],0.187
same,glycan array binding signal (z-score),[36],-0.699
same,glycan array binding signal (z-score),[37],0.676
same,glycan array binding signal (z-score),[38],0.737
same,glycan array binding signal (z-score),[39],-0.229
same,glycan array binding signal (z-score),[40],-0.261
same,glycan array binding signal (z-score),[41],-1.18
same,glycan array binding signal (z-score),[42],0.73
same,glycan array binding signal (z-score),[43],0.273
same,glycan array binding signal (z-score),[44],-2.19
same,glycan array binding signal (z-score),[45],-0.388

# 3 successive records from above, for reference:
binder,measurement,setting,value
B1,glycan array binding signal (z-score),[13],0.733
same,glycan array binding signal (z-score),[14],-0.372
same,glycan array binding signal (z-score),[15],1.85
